Data published in patent US10821177B2, “Induction of differential stress resistance and uses thereof” (University of Southern California, priority 2007, dated 2020).
Some of these results come from one statement about several compounds together.

Legend:
NXS2 neuroblastoma cells = details: 80 mg/kg etoposide, no STS
Description: The murine NX3IT28 cell line was generated by hybridization of the GD2-negative C1300 murine neuroblastoma cell line (A/J background) with murine dorsal root ganglional cells from […] mice, as previously described. The NXS2 sublime was then created by the selection of NX3IT28 cells with high GD2 expression.
Six-to-seven-week-old female NJ mice, weighing 15-18 g were purchased from Harlan Laboratories (Harlan Italy, S. Pietro al Natisone, Italy) and housed in sterile enclosures under specific virus and antigen-free conditions. […]
To determine toxicity and efficacy, mice were monitored routinely for weight loss and general behavior. […]
The statistical significance of differential survival between experimental groups of animals was determined by Kaplan-Meier curves and log-rank […] test by the use of StatDirect statistical software (Camcode, Ashwell, UK). […]
The statistical significance of differential survival between experimental groups of animals was determined by Kaplan-Meier curves and log-rank (Peto) test by the use of StatDirect statistical software (CamCode, Ashwell, UK). […] These animals, i.v. injected with 110 mg/kg etoposide, were monitored routinely for weight loss and general behavior. […]

S. cerevisiae = assay type: cell-based; details: STS plus SCH9/AKT deletion

Row | SMILES | mice killed by the initial dose of etoposide (NXS2 neuroblastoma cells) | higher resistance of starved yeast lacking SCH9/AKT compared to RAS2^val19 expressing yeast cells (S. cerevisiae)
1 | COc1cc([C@@H]2c3cc4c(cc3[C@@H](O[C@@H]3O[C@@H]5CO[C@@H](C)O[C@H]5[C@H](O)[C@H]3O)[C@H]3COC(=O)[C@H]23)OCO4)cc(OC)c1O [Eto, etoposide] | 50-65% | 
2 | COS(C)(=O)=O [MMS, methyl methanesulfonate] |  | 1,000-10,000 fold
3 | CC1=CC(=O)c2ccccc2C1=O [menadione] |  | 1,000-10,000 fold
